The values that follow come from article PMC2267038.

No constants are given. Whether binding was seen depends on the method and setting. Binding seen in cells or lysates may run through a third protein. Binding can be weak; no strength is given.

This assay has as its target T1, Type II hexokinase (human (endogenous in HeLa)) (UniProt P52789).
T1 sequence: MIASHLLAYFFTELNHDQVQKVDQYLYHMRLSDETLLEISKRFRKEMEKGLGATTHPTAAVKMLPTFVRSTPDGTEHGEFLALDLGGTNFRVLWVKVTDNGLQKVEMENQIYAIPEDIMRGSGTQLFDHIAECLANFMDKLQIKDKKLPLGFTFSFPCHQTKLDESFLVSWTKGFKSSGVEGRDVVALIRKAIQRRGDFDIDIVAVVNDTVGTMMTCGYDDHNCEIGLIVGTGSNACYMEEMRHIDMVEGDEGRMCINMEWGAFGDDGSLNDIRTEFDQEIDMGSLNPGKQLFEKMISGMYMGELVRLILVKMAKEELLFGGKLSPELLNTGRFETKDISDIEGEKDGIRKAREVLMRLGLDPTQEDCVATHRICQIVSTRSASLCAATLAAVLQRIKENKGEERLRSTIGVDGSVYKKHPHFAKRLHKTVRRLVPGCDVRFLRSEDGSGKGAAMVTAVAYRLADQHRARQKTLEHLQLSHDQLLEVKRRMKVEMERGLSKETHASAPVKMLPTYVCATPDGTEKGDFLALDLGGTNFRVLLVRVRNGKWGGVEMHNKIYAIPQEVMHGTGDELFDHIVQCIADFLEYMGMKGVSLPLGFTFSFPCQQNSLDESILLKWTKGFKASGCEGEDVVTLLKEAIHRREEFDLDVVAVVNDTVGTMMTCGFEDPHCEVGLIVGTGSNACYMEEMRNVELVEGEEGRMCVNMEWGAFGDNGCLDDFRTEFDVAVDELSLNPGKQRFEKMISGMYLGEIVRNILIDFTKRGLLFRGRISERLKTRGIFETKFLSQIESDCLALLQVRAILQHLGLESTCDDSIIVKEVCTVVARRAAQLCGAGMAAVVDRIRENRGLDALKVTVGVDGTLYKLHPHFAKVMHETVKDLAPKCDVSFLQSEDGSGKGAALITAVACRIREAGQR
The assay is described as follows: co-IP; HK II immunoprecipitated from HeLa cells kept in control conditions, VDAC detected by blot; 1000-1500 µg of proteins per reaction, antibodies on protein A- or protein G-Sepharose, 4°C overnight.

As for “voltage-dependent anion channel (human (endogenous in HeLa))”, the binding result is “binds”.
